Measurements reported in patent EP4524159A1, “ANTIBODY AND USE THEREOF” (Sichuan Huiyu Pharmaceutical Co., Ltd., priority 2022, dated 2023).
These are yes or no findings as the source states them, for the method shown. Some results given as binding are weak or reduced against the parent protein; the word gives no strength.

Molecular target: CynoCDCP1 (Macaca fascicularis)
Assay: Caterra SPR, antigen immobilized

| Binder | binding |
| --- | --- |
| 1CP-117 (antibody, human IgG1, kappa, V domains shown) VH: QVQLVQSGSELKKPGASVKVSCKASGYTLTDFSMHWVRQAPGQGLEWMGWINTETGAPTYADDFKGRFVLSLDTSVSTAYLQISSLKAEDTAVYYCSRGRDYDPHFDYWGQGTLVTVSS VL: EIVLTQSPATLSLSPGERATLSCRASQSISDFLHWYQQKPGQSPRLLIKYASQSISGIPARFSGSGSGSDFTLTISSVEPEDFAVYYCQSAHSFPYTFGQGTKLEIKR | binds |
| 1CP-152 (antibody, human IgG1, kappa, V domains shown) VH: EVQLVESGGGLVQPGRSLRLSCTTSGLTFTHYHMSWVRQAPGKGLEWVAIIRNKAYGYTTDYSASVRGRFTISRDDSKSILYLQMNSLKTEDTAVYYCVREGGYGYDGTFAYWGQGTLVTVSS VL: DIQMTQSPSSLSASVGDRVTITCRASESVDNYGISFMNWFQQKPGQAPKLLIYAASNQGSGVPSRFSGSGSGTDFTLTISSMQPEDFATYYCQQSKEVPRTFGGGTKVEIKR | binds |
| 1CP-124 (antibody, human IgG1, kappa, V domains shown) VH: QVQLVQSGAEVKKPGASVKVSCKASGYNFISYWLHWVRQAPGQGLEWMGGIYPGNTDTTYNQKFKGRVTMTRDTSTSTVYMELSSLRSEDTAVYYCIRYDYDRGMDYWGQGTLVTVSS VL: DIQMTQSPSSLSASVGDRVTITCRASEDIYYRLAWYQQKPGKAPKLLISGATALETGVPSRFSGSGSGKDYTFTISSLQPEDIATYYCQHYWNIPWTFGQGTKVEIKR | binds |

Continued, values first:

| binding | Binder |
| --- | --- |
| binds | 1CP-121 (antibody, human IgG1, kappa, V domains shown) VH: QVQLVQSGSELKKPGASVKVSCKASGYTLTDFSMHWVRQAPGQGLEWMGWINTETGAPTYADDFKGRFVLSLDTSVSTAYLQISSLKAEDTAVYYCSRGRDYDPHFDYWGQGTLVTVSS VL: EIVLTQSPATLSLSPGERATLSCRASQSISDFLHWYQQKSGQSPRLLIKYASQSISGIPARFSGSGSGSDFTLTISSVEPEDFAVYYCQSAHSFPYTFGQGTKLEIKR |
| binds | 1CP-157 (antibody, human IgG1, kappa, V domains shown) VH: EVQLVESGGGLVQPGRSLRLSCTTSGLTFTHYHMSWVRQAPGKGPEWVAIIRNKAYGYTTDYSASVRGRFTISRDDSKSILYLQMNSLKTEDTAVYYCVREGGYGYDGTFAYWGQGTLVTVSS VL: DIQMTQSPSSLSASVGDRVTITCRASESVDNYGISFMNWFQQKPGQPPKLLIYAASNQGSGVPSRFSGSGSGTDFTLTISSMQPEDFATYYCQQSKEVPRTFGGGTKVEIKR |
| binds | 1CP-125 (antibody, human IgG1, kappa, V domains shown) VH: QVQLVQSGAEVKKPGASVKVSCKASGYNFISYWLHWVRQAPGQGLEWMGGIYPGNTDTTYNQKFKGRVTMTADTSTSTVYMELSSLRSEDTAVYYCIRYDYDRGMDYWGQGTLVTVSS VL: DIQMTQSPSSLSASVGDRVTITCRASEDIYYRLAWYQQKPGKAPKLLISGATALETGVPSRFSGSGSGKDYTFTISSLQPEDIATYYCQHYWNIPWTFGQGTKVEIKR |
